Measured values reported in patent US20240287172A1, “PROTEIN BINDERS TO IRHOM2 EPITOPES” (SCIRHOM GMBH, priority 2019, published 2024).

B1: antibody 5 (antibody, V domains shown)
VH: QVTLKESGPGILQPSQTLSLTCSFSGFSLSTFGMGVGWIRQPSGKGLEWLAHIWWDDEKYYNSALKSRLTISKATSKNQAFLKIANVDTADTATYYCARISNYGSNYWYFNVWGTGTTVTVSS
VL: QVVLTQSPALMSASPGEKVTMTCSAGSSVSCMYWYQQKPGSSPRVLIYDTSNLASGVPARFTGSGSGTSYSLTISRMEAEDAASYYCQQWNSYPLTFGAGTKLELK
B2: antibody 43 (antibody, V domains shown)
VH: B1 VH with T3A, P42S, H52N, E58D, S63P, A74D, T75A, S101G, N111D
VL: QIVLTQSPAIMSASPGERVTMTCSANSRISYMYWYQQKPGSSPRLLIYDTSNLASGVPVRFSGSGSGTSYSLTISRMEAEDAATYNCQQWSSYPLTFGAGTKLELK
B3: antibody 44 (antibody, V domains shown)
VH: B1 VH with G44E, E58D, S63P, A74D, A80I, A85T, D91E, A98S, S101G, N111D
VL: QIVLTQSPAVMSASPGEKVTMTCTASSSVYYMYWYQQTPGSSPRLLIYDTSNLASGVPVRFSGSGSGTSYSLTISRMEAEDAATYYCQQWNTYPLTFGAGTKLELK
B4: antibody 22 (antibody, V domains shown)
VH: B1 VH with A80V
VL: B1 VL with C31Y, S84T
B5: antibody 42 (antibody, V domains shown)
VH: B1 VH with F24L, M34R, S63P, A74D, A80V, K83R, S101Q, N111D
VL: B2 VL with Q1L, R18K, S24G, N26T, Y33F, L45V, M77V, A82V, N86Y, S91N
B6: antibody 50 (antibody, V domains shown)
VH: QVQLQQSGAELVRPGASVKVSCKASGYAFSNYLIEWVKQRPGQGLEWIGVINPGSGFTKYNEKFKGKATLTADKSSSTAYMQLSSLTSEDSAVYFCARGLYRAMDYWGQGTSVTVSS
VL: DIQMTQSPASQSASLGESVTITCLASQTIGTWLAWYQQKPGKSPQLLIYAAASLADGVPSRFSGGGSGTKFSFKISSLQAEDFVNYYCQQIYSTPYTFGGGTKLEIK
B7: antibody 3 (antibody, V domains shown)
VH: QVTLKESGPGILQPSQTLSLTCSFSGFSLTTFAMGIGWVRQPSGKGLEWLAHIWWDGEKYNNPVLKSRLTISKDTSKNQVFLRIANVDTPDTATYYCARISSIYYIIDNWGQGTSVTVSS
VL: DIVLTQSPATLSVTPGHSVSLSCRASQSISNNLHWYQKKSHESPRLLIKYVSQSISGIPSRFSGSGSGTDFTLSINSVETEDFGMYFCQQSYNWPLTFGAGTKLELK
B8: antibody 16 (antibody, V domains shown)
VH: QVTLKESGPGILQPSQTLSLTCSFSGFSLSTFALGVGWIRQPSGRGLEWLAHIWWDDDKYYNPALKSRLTISKDTSKNHVFLKIANVDTADTATYYCARITTYYYGMDYWGQGTSVTVSS
VL: B7 VL with T5S, H17D, S22F, S30G, N32H, K38Q, K39E, E42A, V51A
B9: antibody 34 (antibody, V domains shown)
VH: QVTLKESGPGILQPSQTLSLTCSFSGFSLSTFSLGVGWIRQSSGKGLEWLAHIWWDDEKYYNPALKSRLTISKDTSKNQVFLKIANVDAADTATYYCARAYYSKSYYALDYWGQGTSVTVSS
VL: DIQMTQSPSSLSASLGERVSLTCRASQEISGYLSWLQQKPDGTIKRLIYAASTLDSGVPKRFSGSRSGSDYSLAISSLESEDFADYYCLQYANFPFTFGSGTKLEIK

Target: mouse iR1 wild type (mouse)
Assay: FACS on MEF-DKO cells

Row | binding | Binder
1 | no binding (tested: 3 µg/ml) | B1
2 | no binding (tested: 3 µg/ml) | B2
3 | no binding (tested: 3 µg/ml) | B3
4 | no binding (tested: 3 µg/ml) | B4
5 | no binding (tested: 3 µg/ml) | B5
6 | no binding (tested: 3 µg/ml) | B6
7 | no binding (tested: 3 µg/ml) | B7
8 | no binding (tested: 3 µg/ml) | B8
9 | no binding (tested: 3 µg/ml) | B9

Changes are numbered by the printed parent chain. These are yes or no findings as the source states them, for the method shown.
